Results deposited as PubChem BioAssay AID1224830 (NIAID, 2016)
Shown is an unselected part of about 18,000 reagents tested. About 2,900 of them (16%) count as active. 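Calls are made per well; low scores hint the gene aids the LPS response, high scores that it dampens it.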 Repeated entries: four replicate wells of each siRNA pool.

Aim: 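Regulators of TLR4 signalling towards TNF-alpha in macrophage-like cells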 (primary screen)
Cells: human THP-1 monocytic leukaemia cells, TNF dual-luciferase reporter clone, PMA-differentiated to macrophage-like cells
Knock-down reagent: siRNA pool against human genes, 50 nM
Timing: LPS for 4 h, given about 3 days after siRNA transfection
Treatment: bacterial LPS (TLR4 ligand), 10 ng/ml
Read-out: 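Ratio of firefly to renilla light, scaled to the plate median and expressed as a robust z-score per replicate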
Scale: TNF reporter robust z-score: higher = stronger TNF reporter response to LPS
Hit rule: 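a well is active when its z-score exceeds 2.8 or falls below -1.5; control wells carry no call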

Gene,PubChem SID,TNF reporter robust z-score,activity call
ASL (argininosuccinate lyase),SID315447429,-1.09,inactive
ASL (argininosuccinate lyase),SID315447429,-0.83,inactive
ASL (argininosuccinate lyase),SID315447429,-0.76,inactive
ASL (argininosuccinate lyase),SID315447429,-0.34,inactive
ZNF180 (zinc finger protein 180),SID315452268,3.84,active
ZNF180 (zinc finger protein 180),SID315452268,2.81,active
ZNF180 (zinc finger protein 180),SID315452268,3.4,active
ZNF180 (zinc finger protein 180),SID315452268,0.85,inactive
ZNF418 (zinc finger protein 418),SID315462331,-0.3,inactive
ZNF418 (zinc finger protein 418),SID315462331,-0.58,inactive
ZNF418 (zinc finger protein 418),SID315462331,-0.49,inactive
ZNF418 (zinc finger protein 418),SID315462331,0.11,inactive
OR8B3 (olfactory receptor family 8 subfamily B member 3),SID315464636,-0.03,inactive
OR8B3 (olfactory receptor family 8 subfamily B member 3),SID315464636,0.56,inactive
OR8B3 (olfactory receptor family 8 subfamily B member 3),SID315464636,-0.73,inactive
OR8B3 (olfactory receptor family 8 subfamily B member 3),SID315464636,0.47,inactive
GET4 (guided entry of tail-anchored proteins factor 4),SID315456805,-0.42,inactive
GET4 (guided entry of tail-anchored proteins factor 4),SID315456805,-0.95,inactive
GET4 (guided entry of tail-anchored proteins factor 4),SID315456805,-1.03,inactive
GET4 (guided entry of tail-anchored proteins factor 4),SID315456805,0.21,inactive
ZNF22 (zinc finger protein 22),SID315452205,-0.75,inactive
ZNF22 (zinc finger protein 22),SID315452205,-0.06,inactive
ZNF22 (zinc finger protein 22),SID315452205,-0.72,inactive
ZNF22 (zinc finger protein 22),SID315452205,-0.32,inactive
ZSWIM1 (zinc finger SWIM-type containing 1),SID315460793,-0.19,inactive
ZSWIM1 (zinc finger SWIM-type containing 1),SID315460793,-1.06,inactive
ZSWIM1 (zinc finger SWIM-type containing 1),SID315460793,-1.68,active
ZSWIM1 (zinc finger SWIM-type containing 1),SID315460793,-0.83,inactive
IGSF11 (immunoglobulin superfamily member 11),SID315462531,1.69,inactive
IGSF11 (immunoglobulin superfamily member 11),SID315462531,1.46,inactive
IGSF11 (immunoglobulin superfamily member 11),SID315462531,1.49,inactive
IGSF11 (immunoglobulin superfamily member 11),SID315462531,0.26,inactive
LPCAT1 (lysophosphatidylcholine acyltransferase 1),SID315459541,-0.07,inactive
LPCAT1 (lysophosphatidylcholine acyltransferase 1),SID315459541,-0.41,inactive
LPCAT1 (lysophosphatidylcholine acyltransferase 1),SID315459541,-0.22,inactive
LPCAT1 (lysophosphatidylcholine acyltransferase 1),SID315459541,-0.67,inactive
YARS2 (tyrosyl-tRNA synthetase 2),SID315456438,0.8,inactive
YARS2 (tyrosyl-tRNA synthetase 2),SID315456438,0.7,inactive
YARS2 (tyrosyl-tRNA synthetase 2),SID315456438,0.31,inactive
YARS2 (tyrosyl-tRNA synthetase 2),SID315456438,0.56,inactive
STAT3 (signal transducer and activator of transcription 3),SID315451671,0.38,inactive
STAT3 (signal transducer and activator of transcription 3),SID315451671,0.34,inactive
STAT3 (signal transducer and activator of transcription 3),SID315451671,0.45,inactive
STAT3 (signal transducer and activator of transcription 3),SID315451671,0.19,inactive
CES2 (carboxylesterase 2),SID315452852,1.52,inactive
CES2 (carboxylesterase 2),SID315452852,0.94,inactive
CES2 (carboxylesterase 2),SID315452852,0.64,inactive
CES2 (carboxylesterase 2),SID315452852,1.93,inactive
ZNF510 (zinc finger protein 510),SID315454831,,inactive
ZNF510 (zinc finger protein 510),SID315454831,-0.66,inactive
ZNF510 (zinc finger protein 510),SID315454831,-0.98,inactive
ZNF510 (zinc finger protein 510),SID315454831,-0.19,inactive
ZNF510 (zinc finger protein 510),SID315454831,-0.41,inactive
IVNS1ABP (influenza virus NS1A binding protein),SID315454245,0.44,inactive
IVNS1ABP (influenza virus NS1A binding protein),SID315454245,-0.26,inactive
IVNS1ABP (influenza virus NS1A binding protein),SID315454245,-0.13,inactive
IVNS1ABP (influenza virus NS1A binding protein),SID315454245,-0.27,inactive
PATE2 (prostate and testis expressed 2),SID315464730,4.5,active
PATE2 (prostate and testis expressed 2),SID315464730,1.03,inactive
PATE2 (prostate and testis expressed 2),SID315464730,-0.43,inactive
PATE2 (prostate and testis expressed 2),SID315464730,1.67,inactive
SP2 (Sp2 transcription factor),SID315451590,0.09,inactive
SP2 (Sp2 transcription factor),SID315451590,0.53,inactive
SP2 (Sp2 transcription factor),SID315451590,0.16,inactive
SP2 (Sp2 transcription factor),SID315451590,0.32,inactive
TUSC1 (tumor suppressor candidate 1),SID315463911,-0.26,inactive
TUSC1 (tumor suppressor candidate 1),SID315463911,0.49,inactive
TUSC1 (tumor suppressor candidate 1),SID315463911,0.14,inactive
TUSC1 (tumor suppressor candidate 1),SID315463911,-0.11,inactive
LSMEM2 (leucine rich single-pass membrane protein 2),SID315461917,-0.17,inactive
LSMEM2 (leucine rich single-pass membrane protein 2),SID315461917,-0.76,inactive
LSMEM2 (leucine rich single-pass membrane protein 2),SID315461917,-0.05,inactive
LSMEM2 (leucine rich single-pass membrane protein 2),SID315461917,0.81,inactive
IDS (iduronate 2-sulfatase),SID315449397,-0.9,inactive
IDS (iduronate 2-sulfatase),SID315449397,-0.62,inactive
IDS (iduronate 2-sulfatase),SID315449397,-0.54,inactive
IDS (iduronate 2-sulfatase),SID315449397,0.8,inactive
LCN8 (lipocalin 8),SID315462042,-2.31,active
LCN8 (lipocalin 8),SID315462042,-1.69,active
LCN8 (lipocalin 8),SID315462042,-2.07,active
LCN8 (lipocalin 8),SID315462042,-1.86,active
EIF4E (eukaryotic translation initiation factor 4E),SID315448475,-0.58,inactive
EIF4E (eukaryotic translation initiation factor 4E),SID315448475,-0.65,inactive
EIF4E (eukaryotic translation initiation factor 4E),SID315448475,-1.05,inactive
EIF4E (eukaryotic translation initiation factor 4E),SID315448475,-0.36,inactive
NCDN (neurochondrin),SID315455028,1.69,inactive
NCDN (neurochondrin),SID315455028,1.84,inactive
NCDN (neurochondrin),SID315455028,1.07,inactive
LCE1C (late cornified envelope 1C),SID315464270,-0.27,inactive
LCE1C (late cornified envelope 1C),SID315464270,1.37,inactive
LCE1C (late cornified envelope 1C),SID315464270,0.17,inactive
LCE1C (late cornified envelope 1C),SID315464270,1.64,inactive
YTHDF1 (YTH N6-methyladenosine RNA binding protein F1),SID315457261,1.96,inactive
YTHDF1 (YTH N6-methyladenosine RNA binding protein F1),SID315457261,2.09,inactive
YTHDF1 (YTH N6-methyladenosine RNA binding protein F1),SID315457261,0.35,inactive
YTHDF1 (YTH N6-methyladenosine RNA binding protein F1),SID315457261,0.54,inactive
SERPIND1 (serpin family D member 1),SID315449163,-1.01,inactive
SERPIND1 (serpin family D member 1),SID315449163,-0.34,inactive
SERPIND1 (serpin family D member 1),SID315449163,-1.22,inactive
SERPIND1 (serpin family D member 1),SID315449163,0.41,inactive
ATG12 (autophagy related 12),SID315453076,0.62,inactive
ATG12 (autophagy related 12),SID315453076,1.2,inactive
ATG12 (autophagy related 12),SID315453076,1.1,inactive
ATG12 (autophagy related 12),SID315453076,1.95,inactive
CDKL3 (cyclin dependent kinase like 3),SID315456594,1.46,inactive
CDKL3 (cyclin dependent kinase like 3),SID315456594,0.66,inactive
CDKL3 (cyclin dependent kinase like 3),SID315456594,1.19,inactive
CDKL3 (cyclin dependent kinase like 3),SID315456594,2.15,inactive
RPL13 (ribosomal protein L13),SID315451180,1.63,inactive
RPL13 (ribosomal protein L13),SID315451180,-0.05,inactive
RPL13 (ribosomal protein L13),SID315451180,1.37,inactive
RPL13 (ribosomal protein L13),SID315451180,1.39,inactive

Laid out differently: 8 of the entries above
{"Gene": "ASL (argininosuccinate lyase)", "PubChem SID": "SID315447429", "TNF reporter robust z-score": -0.34, "activity call": "inactive"}
{"Gene": "ZNF180 (zinc finger protein 180)", "PubChem SID": "SID315452268", "TNF reporter robust z-score": 3.84, "activity call": "active"}
{"Gene": "ZNF180 (zinc finger protein 180)", "PubChem SID": "SID315452268", "TNF reporter robust z-score": 2.81, "activity call": "active"}
{"Gene": "ZNF180 (zinc finger protein 180)", "PubChem SID": "SID315452268", "TNF reporter robust z-score": 3.4, "activity call": "active"}
{"Gene": "ZNF180 (zinc finger protein 180)", "PubChem SID": "SID315452268", "TNF reporter robust z-score": 0.85, "activity call": "inactive"}
{"Gene": "ZNF418 (zinc finger protein 418)", "PubChem SID": "SID315462331", "TNF reporter robust z-score": -0.3, "activity call": "inactive"}
{"Gene": "ZNF418 (zinc finger protein 418)", "PubChem SID": "SID315462331", "TNF reporter robust z-score": -0.58, "activity call": "inactive"}
{"Gene": "ZNF418 (zinc finger protein 418)", "PubChem SID": "SID315462331", "TNF reporter robust z-score": -0.49, "activity call": "inactive"}
